Source: article PMC10731243
No constants are given. Whether binding was seen depends on the method and setting. Binding seen in cells or lysates may run through a third protein. Sequences can lack the tags named with a protein.

By UniProt entry, the sequences of proteins in these tests, tags left out.
UniProt A0MES8: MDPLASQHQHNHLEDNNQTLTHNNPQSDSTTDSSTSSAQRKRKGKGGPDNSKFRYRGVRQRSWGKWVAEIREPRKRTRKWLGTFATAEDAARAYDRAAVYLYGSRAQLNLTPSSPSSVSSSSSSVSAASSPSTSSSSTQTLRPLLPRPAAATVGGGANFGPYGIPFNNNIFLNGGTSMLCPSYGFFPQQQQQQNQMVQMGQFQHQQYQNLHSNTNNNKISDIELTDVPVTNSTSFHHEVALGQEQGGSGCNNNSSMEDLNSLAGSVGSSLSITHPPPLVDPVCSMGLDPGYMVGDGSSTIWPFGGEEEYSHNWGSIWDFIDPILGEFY

Molecular target: abscisic acid insensitive 4 (ABI4) (Arabidopsis (endogenous in 35S:EX1-GFP seedlings)) (UniProt A0MES8)
Assay: co-IP; nuclear proteins of 35S:EX1-GFP seedlings (5 days dark, then 100 uM Rose Bengal in white light for 0 or 30 min) in Co-IP buffer (100 mM NaCl, 10 mM Tris-HCl, 10 mM MgCl2, 1 mM EDTA, 5% glycerol, 1% Triton X-100, 0.4% NP-40, pH 7.5); precipitated with anti-GFP-agarose or anti-ABI4-agarose beads, 1 h at 4 °C; blotted with anti-GFP or anti-ABI4

binding: no binding
B1: EX1-GFP (executer 1 fused to GFP, from 35S:EX1-GFP transgenic plants) (protein, UniProt Q93YW0 47-684)
chain: CSSSSGSNSSSSSSSDDNPRWDSAIQDVLKSAIKRFDSVLSWYATLDNDDGEQGSENVEKIDDDWDWDRWKKHFDQVDDQDRLLSVLKSQLNRAIKREDYEDAARLKVAIAATATNDAVGKVMSTFYRALLEERYKDAVYLRDKAGAGLVGWWSGISEDVKDPFGLIVQITAEHGRYVARSYNPRQLSTSAAGAPLFEIFLTLDGKGNYKKQAVYLKWKEIFPDVPTMPSRTLTPGRFLTSPGRKEDTGNLAVESSEDEESDNSDDDSDLLEESSGFQSFLRDMIPGVKVKVMKVTAPGRVDKDFISKVIEQIADEEDEENDLDIEDIDVEDDTKAEIDEKNADIELESVTDEIIDNNGGREIAVKFVIGDIVDRLSGNQPLKESLRSPANLESVENSSFYLRLEKDLNVKESKGVEGTTLVDGKGSRQSRRRIENIMGDLAKSIEKEKKISVKMLKDVGELLSLTLSQAQNRQQLSGLTKFRRIDVTPSLDPLDGLYIGAHGLYTSEVIHLKRKFGQWKGGKESKKPTDIEFYEYVEAVKLTGDPYVPAGKVAFRAKIGRRYELPHKGLIPEEFGVIARYKGQGRLADPGFRNPRWVDGELVILDGKYVKGGPVVGFVYWAPEYHFVMFFNRLRLQA
